We go through five substances from paper PMC7526454 (JCI Insight, 2020).

Protein sequences, listed by entry. Tags and fused reporters are not part of them. Residues count along the entry.
UniProt O35659, residues 22-463: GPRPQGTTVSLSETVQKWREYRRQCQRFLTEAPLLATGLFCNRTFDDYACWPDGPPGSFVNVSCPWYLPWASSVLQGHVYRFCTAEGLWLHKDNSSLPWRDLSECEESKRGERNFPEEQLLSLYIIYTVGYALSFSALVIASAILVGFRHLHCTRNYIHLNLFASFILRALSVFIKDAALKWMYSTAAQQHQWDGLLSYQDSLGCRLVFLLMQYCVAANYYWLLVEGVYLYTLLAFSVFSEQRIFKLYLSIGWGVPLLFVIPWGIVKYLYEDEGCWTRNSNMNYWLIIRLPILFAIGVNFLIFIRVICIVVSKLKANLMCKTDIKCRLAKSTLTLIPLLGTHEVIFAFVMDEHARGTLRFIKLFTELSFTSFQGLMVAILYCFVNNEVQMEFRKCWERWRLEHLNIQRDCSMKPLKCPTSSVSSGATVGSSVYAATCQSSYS
UniProt P43220, residues 24-463: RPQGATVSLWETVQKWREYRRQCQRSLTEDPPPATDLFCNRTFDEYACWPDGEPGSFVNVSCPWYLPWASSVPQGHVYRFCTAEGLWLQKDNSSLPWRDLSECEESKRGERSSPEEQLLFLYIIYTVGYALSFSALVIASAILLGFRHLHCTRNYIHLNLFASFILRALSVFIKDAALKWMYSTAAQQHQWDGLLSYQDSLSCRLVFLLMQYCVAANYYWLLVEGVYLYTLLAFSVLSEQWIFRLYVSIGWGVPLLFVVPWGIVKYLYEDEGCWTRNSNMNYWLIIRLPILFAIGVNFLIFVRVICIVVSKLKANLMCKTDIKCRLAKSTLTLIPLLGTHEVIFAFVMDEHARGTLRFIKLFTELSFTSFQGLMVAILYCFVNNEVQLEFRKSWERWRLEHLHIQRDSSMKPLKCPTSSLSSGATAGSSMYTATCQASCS
UniProt P49407: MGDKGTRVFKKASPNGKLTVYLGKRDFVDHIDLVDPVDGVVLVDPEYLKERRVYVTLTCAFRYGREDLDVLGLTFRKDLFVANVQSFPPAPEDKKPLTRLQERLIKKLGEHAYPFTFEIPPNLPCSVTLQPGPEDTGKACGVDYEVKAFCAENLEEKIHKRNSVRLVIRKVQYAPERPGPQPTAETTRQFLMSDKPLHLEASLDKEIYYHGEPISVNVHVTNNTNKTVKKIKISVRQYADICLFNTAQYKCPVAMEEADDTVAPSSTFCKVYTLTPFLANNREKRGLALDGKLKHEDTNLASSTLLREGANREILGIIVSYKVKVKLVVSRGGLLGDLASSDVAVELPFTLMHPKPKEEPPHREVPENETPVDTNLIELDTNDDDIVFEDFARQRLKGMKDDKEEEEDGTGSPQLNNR
UniProt P32121: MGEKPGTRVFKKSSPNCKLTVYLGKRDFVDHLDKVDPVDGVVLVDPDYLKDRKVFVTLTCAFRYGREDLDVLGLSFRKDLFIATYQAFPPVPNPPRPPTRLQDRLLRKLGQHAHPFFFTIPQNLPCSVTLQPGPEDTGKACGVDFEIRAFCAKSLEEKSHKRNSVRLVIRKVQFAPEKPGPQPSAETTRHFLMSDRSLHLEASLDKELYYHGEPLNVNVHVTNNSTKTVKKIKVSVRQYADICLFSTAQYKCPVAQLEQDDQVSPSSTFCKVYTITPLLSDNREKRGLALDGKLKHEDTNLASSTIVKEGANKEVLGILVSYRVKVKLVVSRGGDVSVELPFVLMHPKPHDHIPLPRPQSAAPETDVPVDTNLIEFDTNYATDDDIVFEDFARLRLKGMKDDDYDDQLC

No constants are given. Whether binding was seen depends on the method and setting. In cells and extracts the contact can be indirect. Some entries that bind do so weakly or less than the wild type.

For experiment [1], the target named is mouse GLP-1R–LgBiT (mouse) (UniProt O35659). Nature of the experiment: split reporter; NanoLuc enzyme complementation (LgBiT/SmBiT) in transiently transfected cells; stimulated with tirzepatide.
Experiment [2] shares this target. Nature of the experiment: split reporter; NanoLuc enzyme complementation (LgBiT/SmBiT) in transiently transfected cells; reference agonist GLP-1 (repeated from the profile of Figure 1J).
Experiment [3] has the same target. Nature of the experiment: split reporter; NanoLuc enzyme complementation of mouse GLP-1R–LgBiT and ARRB1/2-SmBiT in transiently transfected cells; Nano-Glo substrate; stimulated with concentration series of GLP-1 or tirzepatide.
Experiment [4] concerns the target human GLP-1R with C-terminally fused ProLink1 (human) (UniProt P43220). Nature of the experiment: split reporter; β-galactosidase enzyme fragment complementation (PathHunter) in CHO-K1 cells; agonist-induced: GIP(1-42) or tirzepatide at GIPR, GLP-1(7-36) at GLP-1R; 37°C for 90 minutes, 0.1% casein.
Experiment [5] deals with human GLP-1R-HaloTag (human) (UniProt P43220). Nature of the experiment: FRET or BRET; NanoBRET in transfected Freestyle HEK cells, PBS with 0.1% casein; reference agonist GLP-1 (repeated from the profile of Figure 1J).
Experiment [6] has the same target. Nature of the experiment: FRET or BRET; NanoBRET of NanoLuc-ARRB1/2 (donor) and human GLP-1R-HaloTag with NanoBRET 618 ligand (acceptor) in transfected Freestyle HEK cells; 1x PBS, 0.1% w/v bovine casein; stimulated with concentration series of GLP-1 or tirzepatide.
Experiment [7] has the same target. Nature of the experiment: FRET or BRET; NanoBRET in transfected Freestyle HEK cells, PBS with 0.1% casein; stimulated with tirzepatide.

For ARRB1-SmBiT (from UniProt P49407 1-418), the binding result is reported as “binds weakly” in experiment [1], “binds” in experiment [2] and “binds” in experiment [3].
Regarding ARRB2-SmBiT (from UniProt P32121 1-409), the binding entry in experiment [1] was “binds weakly”; in experiment [2], “binds”; in experiment [3], “binds”.
With “Enzyme Acceptor fused ARRB2 (β-arrestin2) (from UniProt P32121 1-409)”, the binding entry in experiment [4] is reported as “binds”.
As for “NanoLuc-ARRB1 (from UniProt P49407 1-418)”, the results for the binding result in experiment [5], in experiment [6] and in experiment [7] were “binds”, “binds” and “binds weakly”, respectively.
Take “NanoLuc-ARRB2 (from UniProt P32121 1-409)”: the results for the binding result in experiment [5], in experiment [6] and in experiment [7] were “binds”, “binds” and “binds weakly”, respectively.
